Reference: PubChem BioAssay AID2718 (Broad Institute, 2010)
About 480 (0.15%) of roughly 320,000 compounds were called active. Inconclusive results, whose numbers are uncertain, are shown with a selection of clear calls. Cut-off read from the data, not from the text of the source: active = inhibition above about 26% (passing the limit was not always enough); inconclusive = no clear call, values can overlap the other calls.

By UniProt entry, the sequences of proteins in these tests, tags left out.
UniProt O15379, whole entry, looked up: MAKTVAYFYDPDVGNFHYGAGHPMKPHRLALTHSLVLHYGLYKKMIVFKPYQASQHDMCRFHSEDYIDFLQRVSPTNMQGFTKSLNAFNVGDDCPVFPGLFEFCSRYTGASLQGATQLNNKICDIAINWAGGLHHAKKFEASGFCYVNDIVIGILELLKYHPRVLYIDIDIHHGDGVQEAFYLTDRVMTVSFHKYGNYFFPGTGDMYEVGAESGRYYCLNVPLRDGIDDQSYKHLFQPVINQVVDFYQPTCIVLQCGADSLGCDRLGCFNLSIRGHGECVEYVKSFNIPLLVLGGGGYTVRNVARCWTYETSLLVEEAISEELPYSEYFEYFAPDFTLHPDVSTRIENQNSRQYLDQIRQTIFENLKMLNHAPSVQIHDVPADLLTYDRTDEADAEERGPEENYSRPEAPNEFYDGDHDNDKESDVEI

target: Histone deacetylase 3 (Homo sapiens) (UniProt O15379); assay: HDAC3 deacetylase inhibitors, primary screen, biochemical, fluorescence, cell-free homogeneous (AID 2718); conditions: recombinant HDAC3, fluorogenic peptide/trypsin coupled, at 8.3 µM, active compounds read high

Row | Structure (SMILES) | inhibition
1 | COc1ccccc1NC(=O)Cc1csc(NC(=S)Nc2ccccc2)n1 | inactive: 4.34%
2 | O=C(Oc1ccc2c(=O)c(Cl)coc2c1)c1cccnc1 | inconclusive: 42.1%
3 | CCN1N=C(c2ccccc2)CCC1=O | inactive: -1.92%
4 | CCOC(=O)CC1CCCCN1C(=O)c1ccc2oc(CCc3ccccc3)nc2c1 (configuration not stated) | inconclusive: 21.9%
5 | O=C(NC1CCCCC1)N1CCN(c2ccc([N+](=O)[O-])cc2)CC1 | inactive: 2.59%
6 | Cc1ccc(C(=O)NNC(=O)CCC(=O)Nc2cc(C)on2)cc1 | inconclusive: 20.8%
7 | CCn1c(O)c(C=NCc2cccs2)c(=O)n(CC)c1=S | inconclusive: 18.7%
8 | CCOC(=O)c1ccc(N2NC(=O)/C(=C/c3ccc(OC(=O)c4ccco4)c(OC)c3)C2=O)cc1 | inconclusive: 20.3%
9 | COc1ccc(C(=O)n2nnc3ccccc32)cc1OC | active: 69.6%
10 | COc1ccc(C(=O)OCC(=O)NCc2ccccc2)c(OC)c1OC | inactive: 6.28%
11 | Cc1ccc(-c2nnc(SCC(=O)N/N=C/c3cccs3)n2-c2ccc(C)cc2)cc1 | inconclusive: 14.6%
12 | Cc1ccc(S(=O)(=O)CCC(=O)Nc2ccc(F)cc2)cc1 | inconclusive: 13.5%
13 | COc1ccccc1C1Nc2ccccc2NC2=C1C(=O)CC(C)(C)C2 (configuration not stated) | inactive: 8.08%
14 | O=C(COC(=O)c1cc(S(=O)(=O)N2CCOCC2)ccc1O)Nc1ccc2c(c1)OCO2 | inconclusive: 21.4%
15 | COc1cc(NC(=S)N2CCN(C(c3ccccc3)c3ccccc3)CC2)cc(OC)c1 | inconclusive: 26.4%
16 | COc1ccc2c(c1)c(C(=O)CN1CCc3ccccc3C1)c(C)n2C | inactive: 4.54%
17 | Cc1cc(C)c2c(=O)cc(C(F)F)oc2c1 | inactive: 1.53%
18 | O=[N+]([O-])c1c(NCc2ccco2)ccc2nonc12 | inconclusive: 13.3%
19 | O=c1c2cc(F)ccc2sn1-c1ccc(F)cc1 | inconclusive: 22.5%
20 | CN(C)c1ccc(CNc2ccc3c(c2)ncn3C)cc1 | inactive: 6.95%
21 | CCCC(=O)Nc1nc2ccc(NC(=O)c3ccc(Br)o3)cc2s1 | inconclusive: 26.3%
22 | COc1cc(Cl)c(C)cc1NC(=O)CSc1ccc(NC(C)=O)cc1 | inactive: -0.252%

Reprinted at random: three compounds from above.
Row | Structure (SMILES) | inhibition
21 | CCCC(=O)Nc1nc2ccc(NC(=O)c3ccc(Br)o3)cc2s1 | inconclusive: 26.3%
16 | COc1ccc2c(c1)c(C(=O)CN1CCc3ccccc3C1)c(C)n2C | inactive: 4.54%
15 | COc1cc(NC(=S)N2CCN(C(c3ccccc3)c3ccccc3)CC2)cc(OC)c1 | inconclusive: 26.4%

Next entries.

Row | Structure (SMILES) | inhibition
23 | COc1cc2c(cc1OC)C(C(=O)N1CCN(c3ccccn3)CC1)C(c1cccs1)N(C)C2=O (configuration not stated) | inconclusive: 23.8%
24 | CCCCN1C(=O)Nc2ccccc2S1(=O)=O | inconclusive: 28.7%
25 | O=C(c1ccc(C(F)(F)F)cc1)C1CCCN(C(=O)Cn2cnnn2)C1 (configuration not stated) | inconclusive: 18.8%
26 | Cc1csc(/C(=N/OC(=O)c2ccco2)C(N)=O)n1 | active: 27.7%
27 | COC(=O)c1cccc(NC(=O)c2cccc([N+](=O)[O-])c2)c1 | inconclusive: 18.1%
28 | CCc1cc(C(=O)Cc2ccc(F)cc2)c(O)cc1O | inconclusive: 31.5%
29 | CCC(=O)N1CCC2(CC1)Oc1ccc(F)cc1C(=O)C21CC(c2cccnc2)=NO1 (configuration not stated) | inconclusive: 18.1%
30 | CCOCCCNS(=O)(=O)c1ccc(NC(=O)c2ccc(OC)c([N+](=O)[O-])c2)cc1 | inconclusive: 30.1%
31 | O=C(CC1NCCc2ccccc21)Nc1ccccc1 (configuration not stated) | inconclusive: 11.8%
32 | O=C(Nc1ccsc1C(=O)NC1CC1)c1ccccc1 | inactive: -11.5%
33 | CCn1cc(C(=O)N[C@@H](C)C(=O)OC)c(=O)c2cc3c(cc21)OCO3 | inactive: -0.474%
34 | Cc1ccc(-c2nc(CS(=O)CC(=O)NCc3ccc4c(c3)OCO4)c(C)o2)cc1 (configuration not stated) | inconclusive: 23.2%
35 | COc1ccc([C@H]2CC(=O)C=C(c3cccc(NC(C)=O)c3)C2)cc1 | inactive: 1.23%
36 | Cc1ccc(C(=O)N[C@H](C(=O)NC2CCCCCCC2)C(C)C)cc1 | inconclusive: 15%
37 | O=C(Nc1ncc([N+](=O)[O-])s1)c1cccs1 | inconclusive: 16.4%
38 | CCn1c2ccccc2c2nnc(SCCCn3c(=O)[nH]c4ccccc43)nc21 | inconclusive: 11.3%
39 | Cc1ccc(-c2cc(C(=O)N/N=C/C=C/c3ccco3)c3ccccc3n2)cc1C | inconclusive: 26.2%
40 | CCc1ccccc1N1CSC2=C(C#N)C(c3cc(OC)c(OC)cc3OC)CC(=O)N2C1 (configuration not stated) | inactive: 9.89%
41 | CCCCNC(=O)/C(C#N)=C/c1ccc2c(c1)OCCO2 | inactive: 0.473%
42 | O=C(Oc1ccc2ccc(=O)oc2c1)c1cccs1 | active: 30.4%
43 | COc1ccc(CC(=O)N/N=C/C=C/c2cccc([N+](=O)[O-])c2)cc1OC | inconclusive: 13.1%
44 | O=C(CSc1nc2nc3c(cc2c(=O)n1-c1ccccc1)CCCC3)Nc1cccc2ccccc12 | inactive: -0.663%

Arranged by count of non-hydrogen atoms (rising): 3 of the compounds above.
Row | Structure (SMILES) | inhibition
31 | O=C(CC1NCCc2ccccc21)Nc1ccccc1 (configuration not stated) | inconclusive: 11.8%
25 | O=C(c1ccc(C(F)(F)F)cc1)C1CCCN(C(=O)Cn2cnnn2)C1 (configuration not stated) | inconclusive: 18.8%
34 | Cc1ccc(-c2nc(CS(=O)CC(=O)NCc3ccc4c(c3)OCO4)c(C)o2)cc1 (configuration not stated) | inconclusive: 23.2%

Remaining list, next part.

Row | Structure (SMILES) | inhibition
45 | C/C(CCC1CC(C)OC1=O)=N\NC(N)=O (configuration not stated) | inconclusive: 15.1%
46 | C=C1C(=O)C=C2CN(C(=O)c3ccccc3)[C@@](Cc3ccc(F)cc3)(C(=O)OC)[C@@H]12 | inconclusive: 31.5%
47 | COc1ccccc1NC(=O)/C=C/c1ccc(OC)c(S(=O)(=O)N2CCOCC2)c1 | inconclusive: 15.8%
48 | CCOc1ccc(CNC(=O)Cn2nc(C)c3c(C)n(-c4ccc(C)cc4)nc3c2=O)cc1 | inconclusive: 17.4%
49 | COc1cccc(C(=O)NCCC2=CCCCC2)c1 | inactive: 0.976%
50 | CC(=O)Nc1ccc(S(=O)(=O)N2CCN=C2SCc2ccc([N+](=O)[O-])cc2)cc1 | inactive: -6.48%
51 | Cc1ccc(C)c(NC(=O)c2nnn(Cc3ccccc3)c2N)c1 | inconclusive: 20.9%
52 | Cc1ccccc1C(=O)Nc1nnc(S(=O)(=O)N2CCCCC2)s1 | inconclusive: 13.9%
53 | C[C@]1(C(=O)NCCCNc2ncc(C(F)(F)F)cc2Cl)C=C[C@@H](Cc2ccccc2)N1C(=O)c1ccccc1 | inconclusive: 22.5%
54 | CC(=O)Nc1sc2c(c1CN1CCN(c3ccc(F)cc3)CC1)CCCC2 | inconclusive: 19.4%
55 | Cc1ccc(SSc2cc(C)ccc2N)c(N)c1 | inactive: 3.32%
56 | O=C(Nc1cc2c3c(c1)CC(=O)N3CCC2)c1ccc(Cl)cc1 | inconclusive: 15.5%
57 | COc1cc(/C=C(\C#N)c2ccccn2)cc(OC)c1O | inactive: 6.8%
58 | O=C(COC(=O)c1cc2c(s1)CCC2)Nc1ccc(F)cc1 | inactive: -3.62%
59 | Cc1ccc(Nc2nc(-c3ccc(O)cc3O)cs2)nc1 | inconclusive: 20.7%
60 | Cn1cc(Br)c(C(=O)NNC(=O)Nc2ccccc2C(F)(F)F)n1 | inactive: 1.9%
61 | CCOc1cccc(-c2nnc(SCC(=O)Nc3ccc(OC)c(OC)c3)n2N)c1 | inactive: 5.51%
62 | Nc1c(N=Nc2cccc(Cl)c2)c(=O)[nH]n1-c1ccccc1 | inactive: -0.0339%
63 | Cc1cccc(-n2c(-c3ccoc3C)n[nH]c2=S)c1 | inactive: 5.34%
64 | CCCO/N=C1/C(=O)N(c2ccccc2)c2ccccc21 | inconclusive: 12.9%
65 | CCN(CC)CCNc1ncnc2c1sc1nc(N3CCCC3)c3c(c12)CC(C)(C)OC3 | inactive: 6.52%
66 | Cn1nccc1C(=O)NC1CCCc2c1cnn2-c1ccccc1F (configuration not stated) | inconclusive: 12.1%

Row | Structure (SMILES) | inhibition
67 | Cc1ccc(NC(=O)N2CCN(C/C=C/c3ccccc3)CC2)cc1 | inconclusive: 16.1%
68 | CCS(=O)(=O)c1ccc(O)c(NC(=O)Nc2ccccc2)c1 | inconclusive: 17.7%
69 | CCC(SC1=N/C(=C/c2ccccc2)C(=O)N1c1ccccc1)C(=O)Nc1cc(C)on1 (configuration not stated) | inconclusive: 14.7%
70 | C#CC[N+]1(CC#Cc2cccc(C)c2)CCCCC1 | inconclusive: 21.9%
71 | O=C1OCCC1Sc1nc2ccccc2n1Cc1ccccc1 (configuration not stated) | inactive: 1.42%
72 | O=C(Cc1ccccc1F)Nc1ccc(S(=O)(=O)N2CCCC2)cc1 | inactive: -0.842%
73 | CC(OC(=O)c1cc(Br)ccc1O)C(=O)Nc1ccc(S(=O)(=O)N2CCCC2)cc1 (configuration not stated) | inconclusive: 17.6%
74 | Cc1ccc(NC(=O)C2COc3ccccc3O2)cc1S(=O)(=O)N1CCCCC1 (configuration not stated) | inconclusive: 64.5%
75 | COc1cc(OC)c(C2C(C(=O)Nc3ccccc3)=C(C)Nc3ncnn32)cc1OC (configuration not stated) | inconclusive: 15.7%
76 | C#CCOCCOCCOCCNc1nc(N2CCN(C(=O)CCCCCCCCCCNC(=O)[C@H](CCCCN)n3cc(CCO)nn3)CC2)nc(N2CCN(C(=O)CCCCCCCCCCNC(=O)[C@H](CCCN=C(N)N)n3cc(C[C@@H](C)CC)nn3)CC2)n1 | active: 28.9%
77 | COc1ccc(NS(=O)(=O)NC(=O)c2cn(C)c3ccccc23)cc1 | inconclusive: 22.5%
78 | COc1ccc(NC2CCCN(C(=O)CCCn3cncn3)C2)cc1 (configuration not stated) | inactive: -3.02%
79 | C=CCN1CN=C(NS(=O)(=O)c2ccc(NC(C)=O)cc2)NC1 | inconclusive: 32%
80 | O=C(Cc1ccc(S(=O)(=O)N2CCOCC2)s1)NCCOc1ccccc1 | inconclusive: 16.6%
81 | CCCC(=O)n1nc(-c2ccccc2)nc1N | inconclusive: 17.6%
82 | C=CCN1C=CC(=C/C=C(/C#N)C(=O)OCC)C=C1 | inconclusive: 22.8%
83 | COc1ccc2[nH]c(C)c(CCNC(=S)Nc3ccc(C)cc3)c2c1 | inconclusive: 16.4%
84 | CO[C@H]1C=CO[C@@]2(C)Oc3c(C)c(O)c4c(O)c(c5c(c4c3C2=O)NC2(CCN(CC(C)C)CC2)N=5)=NC(=O)C(C)=CC=C[C@H](C)[C@H](O)[C@@H](C)[C@@H](O)[C@@H](C)[C@H](OC(C)=O)[C@@H]1C | inactive: 6.26%
85 | CCc1noc(C)c1C(=O)N1CCN(S(=O)(=O)c2ccc(C(C)C)cc2)CC1 | inactive: 0.101%
86 | N#Cc1ccccc1OCC(=O)NNC(=O)CCNC(=O)c1ccccc1 | inactive: 2.86%
87 | Cc1ccc(-c2nc3c(cnn3-c3ccccc3)c(=O)o2)cc1 | inconclusive: 22.9%
